# Test results published in US20250164468A1, “Method for Cellular Lifespan Measurement” (AGENCY FOR SCIENCE, TECHNOLOGY AND RESEARCH, priority 2022, published 2025).
# At least one compound was matched to its structure with a doubt left.
# Legend:
# [1] = system: prototrophic yeast strain (CEN.PK113-7D); test: Yeast outgrowth in YPD liquid medium (CLS of aged cells); format: cell-based, Saccharomyces cerevisiae; settings: YPD liquid and agar outgrowth assays; rapamycin 0 to 10 nM
# Method: This quantification was performed by using the formula,
# The CLS of the aged cells was further determined by the yeast outgrowth in YPD liquid medium method as described above. […] At chronological age point day 14, 3-μL of culture were transferred to a second 96-well plate containing 200 μL YPD medium.
# [2] = system: BY4743 strain; test: Propidium iodide fluorescence-based CLS method in BY4743 yeast; format: cell-based, Saccharomyces cerevisiae; settings: different concentrations of rapamycin; SD medium with histidine, leucine, uracil
# [3] = system: prototrophic yeast strain (CEN.PK113-7D); test: Propidium iodide fluorescence-based chronological lifespan (CLS) method in yeast, incl. high-throughput screening; format: cell-based, Saccharomyces cerevisiae; settings: lower concentrations 0.62 to 2.5 nM
# Method: Chronological lifespan (CLS) experiments were conducted in 96-well plates with 200 μL yeast culture. The prototrophic wild-type yeast strain (CEN.PK113-7D) and snf1Δ deletion strains were grown in the SD medium in 96-well plates at 30° C. Saccharomyces cerevisiae BY4743 strain was grown in the SD medium supplemented with histidine (40 mg/L), leucine (160 mg/L), and uracil (40 mg/L) in 96-well plates at 30° C. For assays testing the effect of rapamycin, cellular inoculum was transferred into 96-well plates containing serially double-diluted concentrations (0 to 10 nM) of rapamycin. […] Cells were incubated at 30° C., and the growth was measured at different time points. […] Cell survival was quantified at various age time points by three different approaches: (i) propidium iodide fluorescence-based method, (ii) outgrowth in YPD liquid medium and (iii) spotting assay (FIG. 1).
# 40 μL yeast cells on different age time points were transferred into a 96-well plate different to the 96-well plate in which the CLS analysis was performed. […] Positive and negative sample control were included for quantitative analysis. […] The fluorescence reading of the samples (excitation at 535 nm, emission at 617 nm) and OD600 nm were measured by a microplate reader (BioTek, Winooski, Vermont, United States). The fluorescence intensity of each sample was normalized with OD600 nm. […]
# [4] = system: A549 cells; test: CLS in human cells using propidium iodide fluorescence-based method (A549); format: cell-based; settings: day 1, 4, 6, 8, normalized to DMSO control
# [5] = system: HEK293 cell line; test: CLS in human cells using PrestoBlue outgrowth assay (HEK293); format: cell-based; settings: rapamycin treatment
# [6] = system: HEK293 cells; test: CLS in human cells using propidium iodide fluorescence-based method (HEK293); format: cell-based
structure (smiles),measurement,setting,value
CO[C@H]1C[C@@H]2CC[C@@H](C)[C@@](O)(O2)C(=O)C(=O)N2CCCC[C@H]2C(=O)O[C@H]([C@H](C)C[C@@H]2CC[C@@H](O)[C@H](OC)C2)CC(=O)[C@H](C)/C=C(\C)[C@@H](O)[C@@H](OC)C(=O)[C@H](C)C[C@H](C)/C=C/C=C/C=C/1C [Rapamycin],CLS trend in outgrowth assays,[1],CLS extension by rapamycin
same,survival of aged cells (cell viability),[2],extended cell viability
same,CLS extension of aged cells,[3],CLS extension of the aged cells occurred
same,chronological lifespan,[4],increased the chronological lifespan
same,lifespan of cells (PB-based outgrowth),[5],significantly increased the lifespan
same,chronological lifespan,"[6]; day 1, 4, 6, 8, normalized to DMSO control",increased the chronological lifespan
same,cellular lifespan (cell viability assay),"[6]; rapamycin, sixth day after seeding (FIG. 13)",showed a similar trend
